PMC5100023
Results are given in words; binding and its absence hold for the method and conditions named. For part of these data: Binding seen in cells or lysates may run through a third protein. Some binding calls cover weakened binding; strength is not graded here. Tags and fused reporters may be left off the sequences shown.

Experiments:
[1] = target: T1, MEDEA (MEA), endogenous (Arabidopsis thaliana (endogenous in Arabidopsis inflorescences)) (UniProt O65312); experiment: SEC; native nuclear (chromatin-associated) extract of inflorescences of gFIE-GFP plants on Superose 6 HR 10/30 at 4 °C; fractions immunoblotted (Supplementary Fig. S6B)
T1 sequence: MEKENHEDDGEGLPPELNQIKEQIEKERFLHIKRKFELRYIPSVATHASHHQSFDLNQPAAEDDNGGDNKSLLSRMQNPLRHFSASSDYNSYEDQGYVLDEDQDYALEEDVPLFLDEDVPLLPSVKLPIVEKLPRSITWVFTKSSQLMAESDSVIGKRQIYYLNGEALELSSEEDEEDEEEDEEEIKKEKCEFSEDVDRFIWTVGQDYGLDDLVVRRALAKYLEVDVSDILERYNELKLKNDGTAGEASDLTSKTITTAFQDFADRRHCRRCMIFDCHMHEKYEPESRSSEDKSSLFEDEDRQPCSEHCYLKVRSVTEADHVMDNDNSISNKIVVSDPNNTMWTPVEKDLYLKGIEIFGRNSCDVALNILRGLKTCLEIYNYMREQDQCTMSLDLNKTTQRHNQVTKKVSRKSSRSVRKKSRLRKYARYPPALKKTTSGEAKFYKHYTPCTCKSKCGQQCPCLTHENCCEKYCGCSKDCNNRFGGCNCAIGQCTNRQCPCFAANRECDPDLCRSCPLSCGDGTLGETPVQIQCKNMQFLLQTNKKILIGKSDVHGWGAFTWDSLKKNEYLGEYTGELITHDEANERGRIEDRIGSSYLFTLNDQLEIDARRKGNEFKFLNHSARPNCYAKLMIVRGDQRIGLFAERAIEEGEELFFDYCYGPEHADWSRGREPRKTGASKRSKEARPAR

[2] = target: T1, MEDEA (MEA), endogenous (Arabidopsis thaliana (endogenous in Arabidopsis inflorescences)); experiment: SEC; native cytoplasmic extract of inflorescences (flowers after anthesis) of ProFIE:FIE(gDNA)-GFP plants on Superose 6 HR 10/30 at 4 °C; 0.5 ml fractions immunoblotted with αMEA and αGFP
[3] = target: T2, MEA-3×HA (Arabidopsis thaliana) (UniProt O65312); experiment: co-IP; cytoplasmic extract of inflorescences of MEA-3HA transgenic Arabidopsis; immunoprecipitated with αHA, protein G Sepharose, four washes with PBS, immunoblot with αFIE
T2 sequence: T1 sequence

[4] = target: T3, YN-GG-MEA (in Arabidopsis cotyledons) (Arabidopsis thaliana) (UniProt O65312); experiment: split reporter; BiFC with YN and YC fragments of YFP, transiently coexpressed in Arabidopsis cotyledons by Agrobacterium vacuum infiltration; confocal microscopy 48–72 h after infiltration
T3 sequence: T1 sequence

[5] = target: T4, YN-GG-MEA (in Nicotiana benthamiana leaves) (Arabidopsis thaliana) (UniProt O65312); experiment: co-IP; cytoplasmic extract of N. benthamiana leaves transiently coexpressing YN-MEA and YC-FIE; monoclonal αHA or αGlu-Glu, protein G Sepharose, four washes with PBS, immunoblot
T4 sequence: T1 sequence

B1: gFIE-GFP (FIE-green fluorescent protein fusion expressed from the ProFIE:FIE(gDNA)-GFP transgene) (protein, UniProt Q9LT47 1-369)
chain: MSKITLGNESIVGSLTPSNKKSYKVTNRIQEGKKPLYAVVFNFLDARFFDVFVTAGGNRITLYNCLGDGAISALQSYADEDKEESFYTVSWACGVNGNPYVAAGGVKGIIRVIDVNSETIHKSLVGHGDSVNEIRTQPLKPQLVITASKDESVRLWNVETGICILIFAGAGGHRYEVLSVDFHPSDIYRFASCGMDTTIKIWSMKEFWTYVEKSFTWTDDPSKFPTKFVQFPVFTASIHTNYVDCNRWFGDFILSKSVDNEILLWEPQLKENSPGEGASDVLLRYPVPMCDIWFIKFSCDLHLSSVAIGNQEGKVYVWDLKSCPPVLITKLSHNQSKSVIRQTAMSVDGSTILACCEDGTIWRWDVITK
**Q.** What does the source list for B1?
**A.** binding [1]: binds; binding [2]: binds

B2: FERTILIZATION … ENDOSPERM (FIE), endogenous (protein, UniProt Q9LT47 1-369)
chain: B1 chain
**Q.** Which results are given for B2?
**A.** binding [1]: binds; binding [3]: binds

B3: YC-HA-FIE (in Arabidopsis cotyledons) (protein, UniProt Q9LT47 1-369)
chain: B1 chain
**Q.** With B3 as the binder, how does the binding [4] read?
**A.** binds

B4: YC-HA-FIE (in Nicotiana benthamiana leaves) (protein, UniProt Q9LT47 1-369)
chain: B1 chain
**Q.** How did the binding [5] turn out when B4 was run?
**A.** binds
